Source: PMC5562444
Results are given in words; binding and its absence hold for the method and conditions named. In cells and extracts the contact can be indirect. Some entries that bind do so weakly or less than the wild type.

The chains behind the UniProt entries cited, without tags or fusion partners.
UniProt Q9BQ69: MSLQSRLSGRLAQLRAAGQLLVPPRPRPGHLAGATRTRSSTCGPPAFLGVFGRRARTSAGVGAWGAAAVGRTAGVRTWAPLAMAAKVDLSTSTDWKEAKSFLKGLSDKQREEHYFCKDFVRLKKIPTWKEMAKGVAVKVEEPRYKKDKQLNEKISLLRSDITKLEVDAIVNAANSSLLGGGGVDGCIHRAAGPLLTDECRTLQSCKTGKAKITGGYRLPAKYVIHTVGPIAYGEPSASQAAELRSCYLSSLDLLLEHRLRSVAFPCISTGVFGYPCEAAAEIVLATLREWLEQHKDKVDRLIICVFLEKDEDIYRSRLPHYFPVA
UniProt P19525: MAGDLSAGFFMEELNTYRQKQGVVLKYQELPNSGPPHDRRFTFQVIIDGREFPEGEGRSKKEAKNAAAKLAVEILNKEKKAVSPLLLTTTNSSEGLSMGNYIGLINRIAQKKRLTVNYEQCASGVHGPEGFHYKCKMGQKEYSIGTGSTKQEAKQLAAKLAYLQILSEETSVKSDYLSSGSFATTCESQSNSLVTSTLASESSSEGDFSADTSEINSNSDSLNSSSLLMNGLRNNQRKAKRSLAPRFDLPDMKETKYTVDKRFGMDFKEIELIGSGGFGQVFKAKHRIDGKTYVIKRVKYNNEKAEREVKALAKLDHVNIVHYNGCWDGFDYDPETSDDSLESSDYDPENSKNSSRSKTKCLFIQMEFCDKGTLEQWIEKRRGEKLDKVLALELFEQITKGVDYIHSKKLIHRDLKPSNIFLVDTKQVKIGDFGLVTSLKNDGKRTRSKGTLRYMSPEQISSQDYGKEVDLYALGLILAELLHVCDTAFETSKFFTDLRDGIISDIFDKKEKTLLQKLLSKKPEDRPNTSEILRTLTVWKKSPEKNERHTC

Key:
GST–LRP16 fusion protein = GST–LRP16 fusion protein (UniProt Q9BQ69); test: pull-down; GST–LRP16 on glutathione agarose / GSH–Sepharose beads incubated with in vitro-translated proteins; retained proteins immunoblotted; only the target purified
[1] = target: Leukemia-Related Protein 16 (LRP16), endogenous (human (endogenous in SW480, SW620, HCT116)) (UniProt Q9BQ69); test: co-IP; endogenous proteins, SW480 cell lysates, etoposide for the indicated periods; with or without ethidium bromide in the lysate; anti-LRP16 IP in Figure 6—figure supplement 1E (no MRS2578)
[2] = target: Leukemia-Related Protein 16 (LRP16), endogenous (human (endogenous in SW480, SW620, HCT116)) (UniProt Q9BQ69); test: co-IP; nuclear fractions of SW620 cells treated with etoposide (50 μM) for the indicated periods, endogenous proteins
[3] = target: FLAG-tagged LRP16 expressed in SW480 cells (UniProt Q9BQ69); test: co-IP; nuclear fractions of SW480 cells expressing FLAG–LRP16, etoposide (50 μM) for the indicated periods
[4] = target: Leukemia-Related Protein 16 (LRP16), endogenous (human (endogenous in SW480, SW620, HCT116)) (UniProt Q9BQ69); test: co-IP; cytosolic fractions of SW620 cells treated with etoposide (50 μM) for the indicated periods, endogenous proteins
[5] = target: FLAG-tagged LRP16 expressed in SW480 cells (UniProt Q9BQ69); test: co-IP; cytosolic fractions of SW480 cells expressing FLAG–LRP16 (or control vector), etoposide (50 μM) for the indicated periods
[6] = target: Leukemia-Related Protein 16 (LRP16), endogenous (human (endogenous in SW480, SW620, HCT116)) (UniProt Q9BQ69); test: co-IP; endogenous proteins, HCT116+/+ or HCT116−/− (TP53-null) cells treated with etoposide (50 μM) for the indicated periods
[7] = target: double-stranded RNA-dependent protein kinase PKR, endogenous (human (endogenous in SW480, SW620, HCT116)) (UniProt P19525); test: co-IP; endogenous proteins, SW620 cell lysates, cells transfected with control, LRP16 or PKR siRNAs, with or without etoposide; IP with anti-PKR (Figure 4I) or anti-LRP16 (Figure 5—figure supplement 1D)
[8] = target: Leukemia-Related Protein 16 (LRP16), endogenous (human (endogenous in SW480, SW620, HCT116)) (UniProt Q9BQ69); test: as above
[9] = target: Leukemia-Related Protein 16 (LRP16), endogenous (human (endogenous in SW480, SW620, HCT116)) (UniProt Q9BQ69); test: co-IP; endogenous proteins, SW480 cell lysates, etoposide for the indicated periods; with or without ethidium bromide in the lysate; anti-LRP16 IP in Figure 6—figure supplement 1E (no MRS2578); remark: listed apart in the source
[10] = target: double-stranded RNA-dependent protein kinase PKR, endogenous (human (endogenous in SW480, SW620, HCT116)) (UniProt P19525); test: co-IP; cytosolic fractions of SW480 cells expressing FLAG–LRP16 (or control vector), etoposide (50 μM) for the indicated periods

Row | binding (GST–LRP16 fusion protein) | binding [1] | binding [2] | binding [3] | binding [4] | binding [5] | binding [6] | binding [7] | binding [8] | binding [9] | binding [10] | Molecule
1 | binds |  |  |  |  |  |  |  |  |  |  | in vitro-translated FLAG–PKR (wild type, full-length) (from UniProt P19525 1-551)
2 |  | binds | binds weakly | binds weakly | binds | binds | binds |  |  |  |  | double-stranded RNA-dependent protein kinase PKR, endogenous (from UniProt P19525 1-551)
3 | binds |  |  |  |  |  |  |  |  |  |  | in vitro-translated IKKβ (protein, UniProt O14920 1-756) MSWSPSLTTQTCGAWEMKERLGTGGFGNVIRWHNQETGEQIAIKQCRQELSPRNRERWCLEIQIMRRLTHPNVVAARDVPEGMQNLAPNDLPLLAMEYCQGGDLRKYLNQFENCCGLREGAILTLLSDIASALRYLHENRIIHRDLKPENIVLQQGEQRLIHKIIDLGYAKELDQGSLCTSFVGTLQYLAPELLEQQKYTVTVDYWSFGTLAFECITGFRPFLPNWQPVQWHSKVRQKSEVDIVVSEDLNGTVKFSSSLPYPNNLNSVLAERLEKWLQLMLMWHPRQRGTDPTYGPNGCFKALDDILNLKLVHILNMVTGTIHTYPVTEDESLQSLKARIQQDTGIPEEDQELLQEAGLALIPDKPATQCISDGKLNEGHTLDMDLVFLFDNSKITYETQISPRPQPESVSCILQEPKRNLAFFQLRKVWGQVWHSIQTLKEDCNRLQQGQRAAMMNLLRNNSCLSKMKNSMASMSQQLKAKLDFFKTSIQIDLEKYSEQTEFGITSDKLLLAWREMEQAVELCGRENEVKLLVERMMALQTDIVDLQRSPMGRKQGGTLDDLEEQARELYRRLREKPRDQRTEGDSQEMVRLLLQAIQSFEKKVRVIYTQLSKTVVCKQKALELLPKVEEVVSLMNEDEKTVVRLQEKRQKELWNLLKIACSKVRGPVSGSPDSMNASRLSQPGQLMSQPSTASNSLPEPAKKSEELVAEAHNLCTLLENAIQDTVREQDQSFTALDWSWLQTEEEEHSCLEQAS
4 |  |  | binds weakly | binds weakly | binds | binds |  | binds | binds | binds | binds | IKKβ, endogenous (protein, UniProt O14920 1-756) MSWSPSLTTQTCGAWEMKERLGTGGFGNVIRWHNQETGEQIAIKQCRQELSPRNRERWCLEIQIMRRLTHPNVVAARDVPEGMQNLAPNDLPLLAMEYCQGGDLRKYLNQFENCCGLREGAILTLLSDIASALRYLHENRIIHRDLKPENIVLQQGEQRLIHKIIDLGYAKELDQGSLCTSFVGTLQYLAPELLEQQKYTVTVDYWSFGTLAFECITGFRPFLPNWQPVQWHSKVRQKSEVDIVVSEDLNGTVKFSSSLPYPNNLNSVLAERLEKWLQLMLMWHPRQRGTDPTYGPNGCFKALDDILNLKLVHILNMVTGTIHTYPVTEDESLQSLKARIQQDTGIPEEDQELLQEAGLALIPDKPATQCISDGKLNEGHTLDMDLVFLFDNSKITYETQISPRPQPESVSCILQEPKRNLAFFQLRKVWGQVWHSIQTLKEDCNRLQQGQRAAMMNLLRNNSCLSKMKNSMASMSQQLKAKLDFFKTSIQIDLEKYSEQTEFGITSDKLLLAWREMEQAVELCGRENEVKLLVERMMALQTDIVDLQRSPMGRKQGGTLDDLEEQARELYRRLREKPRDQRTEGDSQEMVRLLLQAIQSFEKKVRVIYTQLSKTVVCKQKALELLPKVEEVVSLMNEDEKTVVRLQEKRQKELWNLLKIACSKVRGPVSGSPDSMNASRLSQPGQLMSQPSTASNSLPEPAKKSEELVAEAHNLCTLLENAIQDTVREQDQSFTALDWSWLQTEEEEHSCLEQAS
